Laboratory results taken from PubChem BioAssay AID2417 (National Center for Advancing Translational Sciences (NCATS), 2010).
About 4,300 (3.1%) of roughly 140,000 compounds were called active. Inconclusive results, whose numbers are uncertain, are shown with a selection of clear calls.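 How the source made its calls: active means readout at or below -70, meaning at least 70% loss of cells showing the perinucleolar compartment, a nuclear body marking cancer cells; inconclusive means readout between -30 and a set limit; inactive means the rest.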

Experiment: High Content Assay for Compounds that inhibit the Assembly of the Perinucleolar Compartment;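 further: plate controls were DMSO wells for no effect and camptothecin positive control wells for full effect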
Settings: PC3M PTB-GFP, PNC prevalence imaging, 16 h; at 10 µM; hits give low values
Method in brief: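 Compounds are pinned in duplicate onto adhered PC3M cells stably expressing GFP-tagged PTB and incubated 16 h at 37 C. Cells are then fixed, nuclei stained with Hoechst, and PNC-positive cells counted.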

Row | Compound | activity change (PNC), negative = inhibition
1 | CC1=CC(C)(C)N2C(=O)C3(C(C#N)=C(N)Oc4cc(C)oc(=O)c43)c3cccc1c32 (centres undefined) | inconclusive: -31.1%
2 | NCc1ccccc1COc1ccccc1 | inconclusive: -38.1%
3 | Cc1ccc(/C=N/Nc2cccc(C(=O)O)c2)s1 | inconclusive: -75.1%
4 | O=C(CC(Nc1ccc(Cl)cc1)C(=O)O)c1ccccc1 (centres undefined) | inconclusive: -50.7%
5 | COc1cccc(/C=N/NC(=O)Cn2nc(C)c([N+](=O)[O-])c2C)c1O | inactive: 25.7%
6 | CN1CCN(C(CNS(=O)(=O)c2ccc(F)cc2)c2cccnc2)CC1 (centres undefined) | active: -100%
7 | COc1nc(N/N=C/c2ccc(C)cc2)nc(N2CCCCC2)n1 | inactive: -7.84%
8 | COc1ccc(/C=C(/NC(=O)c2cccs2)C(=O)N2CCOCC2)cc1OC | inconclusive: -54.3%
9 | COC(=O)C1C(=O)NC(SC)=C(C#N)C1c1ccccc1F (centres undefined) | inactive: -14.5%
10 | CCCCN(C)C(=O)CS(=O)(=O)Cc1nc(-c2cccc(OC)c2)oc1C | inconclusive: -31.8%
11 | COc1ccc(-c2nc3ccccc3c(=O)n2CCOc2cccc(C)c2C)cc1 | inactive: 34.1%
12 | c1ccc(-c2noc(-c3cccc4ccccc34)n2)cc1 | inconclusive: -48.8%
13 | COc1cccc(/C=C2\SC(=O)N(CCC(=O)NNC(=O)c3ccccc3Cl)C2=O)c1 | inconclusive: -62.8%
14 | OC(COc1ccc2cc(Br)ccc2c1)CN1CCCC1 (centres undefined) | inactive: 8.32%
15 | Cc1cc(Br)ccc1OCC(=O)N1CCCCCC1 | inactive: 12.9%
16 | CCOc1ccc(/C=N/NC(=O)CC(=O)Nc2ccc(Cl)c(Cl)c2)cc1 | inconclusive: -60.7%
17 | COc1cccc(-n2c(COc3ccccc3C)nnc2SCC(=O)O)c1 | inconclusive: -37.7%
18 | COc1ccccc1C(=O)NNC(=O)c1ccccc1[N+](=O)[O-] | inconclusive: -42.9%
19 | CCOC(=O)C1=C(c2ccccc2)Nc2ncnn2C1c1cc(OC)cc(OC)c1OC (centres undefined) | inconclusive: -41.7%
20 | O=[N+]([O-])c1ccc(Nc2nc(N/N=C\c3ccc4c(c3)OCO4)nc(N3CCCCC3)n2)cc1 | inactive: 24.1%
21 | O=C(c1ccccc1NS(=O)(=O)c1cccs1)N1CCCC1 | inactive: -6.5%
22 | CCOC(=O)C1CCCN(Cc2cc(Br)ccc2OC)C1 (centres undefined) | inactive: 39.4%

Row | Compound | activity change (PNC), negative = inhibition
23 | CC(=O)N(c1ccccc1)C1CCCC1 | inactive: 1.85%
24 | CN(C)S(=O)(=O)c1cccc(-c2nn(-c3ccccc3)cc2/C=C(/C#N)C(=O)NCc2ccco2)c1 | inconclusive: -38.5%
25 | O=C(CN1C(=O)/C(=C\c2ccccc2F)SC1=S)Nc1nc2ccccc2s1 | inconclusive: -30.5%
26 | O=c1ccc(OCCOc2ccccc2)nn1-c1ccccc1 | inconclusive: -38.3%
27 | CCCOc1ccc(/C(O)=C2/C(=O)C(=O)N(CCCOC)C2c2ccncc2)cc1 (centres undefined) | inconclusive: -72.1%
28 | COc1cccc(Nc2nc(-c3sc(N)nc3C)cs2)c1 | inconclusive: -65.7%
29 | O=C(NC(=S)Nc1ccc(S(=O)(=O)N2CCCCC2)cc1)c1ccccc1 | inconclusive: -42.4%
30 | Cc1ccccc1NS(=O)(=O)c1cc(C(N)=O)ccc1C | inactive: 22.4%
31 | CC(=O)N1N=C(c2ccc(C)cc2)OC1c1ccc(C(C)C)cc1 (centres undefined) | inconclusive: -39.2%
32 | Cc1ccc(SC(C)C(=O)Nc2ccc(S(=O)(=O)N3CCOCC3)cc2)cc1 (centres undefined) | inconclusive: -33%
33 | CCOc1ccc2nc(SCC(=O)c3ccccc3)sc2c1 | inconclusive: -50.4%
34 | O=C(/C=C/c1ccccc1)NC(=S)Nc1ccc(N2CCOCC2)cc1 | inconclusive: -32.8%
35 | CC1(C)CC2c3cccc(C(=O)O)c3C(=O)N2c2c1ccc1ccccc21 (centres undefined) | inconclusive: -46.7%
36 | Cc1cc(C)cc(OCC(=O)NN2Cc3ccccc3C2=N)c1 | inconclusive: -37.4%
37 | COc1ccc(S(=O)(=O)N2Cc3ccccc3CC2C(=O)Nc2nccs2)cc1OC (centres undefined) | inconclusive: -53.3%
38 | COc1cccc(C2=NOC(C(=O)NC3CCCCC3)C2)c1 (centres undefined) | inactive: -6.06%
39 | CC(=O)Nc1ccc2c(c1)C(=O)N(c1ccc(C)cc1)C2=O | inconclusive: -38.1%
40 | Cc1cc(NC(=O)C(C)(C)C)no1 | active: -83.8%
41 | CN1/C(=C/C=N/NC(=O)c2ccc([N+](=O)[O-])cc2)C(C)(C)c2ccccc21 | inconclusive: -62.4%
42 | COc1ccccc1N1CC(C(=O)Nc2nnc(SCc3ccccn3)s2)CC1=O (centres undefined) | inconclusive: -36.4%
43 | Cc1ccc2sc(NC(=O)CN3C(=O)CCC3=O)nc2c1C | inconclusive: -64.3%
44 | CNC(=O)CN(c1cc([N+](=O)[O-])ccc1OC)S(C)(=O)=O | inconclusive: -78%

Quoted from above, nos. 25–28
Row | Compound | activity change (PNC), negative = inhibition
25 | O=C(CN1C(=O)/C(=C\c2ccccc2F)SC1=S)Nc1nc2ccccc2s1 | inconclusive: -30.5%
26 | O=c1ccc(OCCOc2ccccc2)nn1-c1ccccc1 | inconclusive: -38.3%
27 | CCCOc1ccc(/C(O)=C2/C(=O)C(=O)N(CCCOC)C2c2ccncc2)cc1 (centres undefined) | inconclusive: -72.1%
28 | COc1cccc(Nc2nc(-c3sc(N)nc3C)cs2)c1 | inconclusive: -65.7%
